According to publication PMC5601664:
These are yes or no findings as the source states them, for the method shown. In cells and extracts the contact can be indirect. Some results given as binding are weak or reduced against the parent protein; the word gives no strength.

Amino acid sequences for entries named in this document (tags omitted).
UniProt Q9EP97: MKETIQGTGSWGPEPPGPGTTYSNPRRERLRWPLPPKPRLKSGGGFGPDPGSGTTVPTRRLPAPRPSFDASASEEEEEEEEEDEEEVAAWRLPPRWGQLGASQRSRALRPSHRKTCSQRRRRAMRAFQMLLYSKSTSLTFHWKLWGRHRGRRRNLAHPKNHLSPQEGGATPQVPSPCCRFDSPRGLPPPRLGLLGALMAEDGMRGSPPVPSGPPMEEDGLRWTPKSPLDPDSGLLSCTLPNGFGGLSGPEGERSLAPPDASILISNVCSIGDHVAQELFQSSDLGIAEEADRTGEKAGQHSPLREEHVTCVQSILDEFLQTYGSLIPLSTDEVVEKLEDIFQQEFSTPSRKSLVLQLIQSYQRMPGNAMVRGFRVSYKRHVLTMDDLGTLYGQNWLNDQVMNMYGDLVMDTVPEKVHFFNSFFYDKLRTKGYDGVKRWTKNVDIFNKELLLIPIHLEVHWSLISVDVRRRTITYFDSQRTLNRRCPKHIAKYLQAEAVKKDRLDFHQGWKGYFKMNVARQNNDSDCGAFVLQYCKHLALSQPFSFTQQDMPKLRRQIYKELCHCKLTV
UniProt P42227: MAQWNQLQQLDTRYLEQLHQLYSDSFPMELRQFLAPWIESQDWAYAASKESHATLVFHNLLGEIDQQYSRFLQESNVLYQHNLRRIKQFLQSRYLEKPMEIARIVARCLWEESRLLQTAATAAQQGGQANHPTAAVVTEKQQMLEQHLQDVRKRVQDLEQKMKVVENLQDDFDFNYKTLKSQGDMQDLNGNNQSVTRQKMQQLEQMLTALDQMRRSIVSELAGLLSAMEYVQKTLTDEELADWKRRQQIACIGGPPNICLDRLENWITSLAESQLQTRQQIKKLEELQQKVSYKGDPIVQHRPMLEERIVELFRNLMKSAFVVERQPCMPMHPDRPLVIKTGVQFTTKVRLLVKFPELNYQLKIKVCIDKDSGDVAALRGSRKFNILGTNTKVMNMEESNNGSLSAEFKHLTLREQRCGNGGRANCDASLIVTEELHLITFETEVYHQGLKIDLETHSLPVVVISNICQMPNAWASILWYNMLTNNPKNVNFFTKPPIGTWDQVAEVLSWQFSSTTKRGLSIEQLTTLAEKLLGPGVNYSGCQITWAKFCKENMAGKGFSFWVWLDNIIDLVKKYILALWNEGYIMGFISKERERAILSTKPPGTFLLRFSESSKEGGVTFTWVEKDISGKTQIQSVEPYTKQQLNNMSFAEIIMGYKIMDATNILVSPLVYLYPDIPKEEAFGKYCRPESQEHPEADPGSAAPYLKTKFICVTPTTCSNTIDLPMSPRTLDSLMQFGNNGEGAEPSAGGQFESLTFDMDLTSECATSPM

Biological target: SENP3 (Sentrin-specific protease 3) (mouse (endogenous in primary Sertoli cells)) (UniProt Q9EP97)
Experiment: co-IP; endogenous proteins in primary mouse Sertoli cell lysate (10 mM Tris, 150 mM NaCl, 1% NP-40, 10% glycerol, pH 7.4); immunoprecipitation with anti-SENP3 antibody, rabbit IgG as negative control, 4°C overnight; protein A/G-Sepharose beads; immunoblot

STAT3 (from UniProt P42227 1-770)
binding: binds
